Experimental data: patent US20210340231A1 (FAPON BIOTECH, published 2021)
No constants are given. Whether binding was seen depends on the method and setting. Some binding calls cover weakened binding; strength is not graded here.

Target: CTNI quality control recombinant protein (PK2-CTNI-1, 170120, produced by the applicant) (human) (UniProt P19429)
Experiment: indirect ELISA on coated cTnI

B1: Mutation 1 (antibody, V domains shown)
VH: EVQLQQSGAELVKPGASVKLSCTASGFNLKDYFMHWMKQRTEQGLDWIGRIDPEDAETRYAPEFQGKATITADTSSNTAYLQLSTLTSEDTAVYYCARYYSSYIPFVYWGQGTLVTASA
VL: DVVMTQTPLSLSVSLGDQASISCRSSQSIIYSNRHTYLHWYLQKPGQSPKLLIFQISNRFSGVPDRFSGSGSGTDFTLKINRVEAEDLGVYFCSQSTHLPFTFGSGTKLEIKR
notes: No residue numbers are printed, so each chain is built as FR1-CDR1-FR2-CDR2-FR3-CDR3-FR4-constant
For B1, the binding was “binds”.
